Values from PubChem BioAssay AID1159578 (Peter MacCallum Cancer Centre, 2015)

- Test: 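Knock-downs that alter how fast lymphatic endothelial cells migrate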 (primary screen)
- Cells: human lymphatic endothelial cells
- Knock-down reagent: siRNA pool against human genes, 40 nM
- Timing: 48 h after transfection
- Detection: 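High-content imaging of dye-stained cells in a scratch assay measures filled wound area and nuclei per well; duplicate means given as ratio to mock and robust z-score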
- Scale: migration robust z-score: higher = faster migration into the scratch; nuclei per well: higher = more cells in the well
- Rule for the call: 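Pools averaging fewer than 3300 nuclei are never called; remaining pools count as changed when migration robust z lies outside -2 to 2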
- Calls: active = migration changed; inactive = no migration change, or too few cells
The whole screen tested about 18,000 reagents; below is a part drawn at random. About 1,030 of all reagents (5.7%) were called active. 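Inactive calls also include pools with fewer than 3300 nuclei, whose migration was not assessed.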 Raw values vary from plate to plate and are shown uncorrected. A number with no mark means an inactive call. Further read-outs or replicates are left out here.

GLYATL2 (glycine-N-acyltransferase like 2) | migration robust z-score: 0.75; nuclei per well, duplicate mean: 4368
WIPI1 (WD repeat domain, phosphoinositide interacting 1) | migration robust z-score: -0.11; nuclei per well, duplicate mean: 5860
SLC6A5 | migration robust z-score: -0.32; nuclei per well, duplicate mean: 5987
USP30 (ubiquitin specific peptidase 30) | migration robust z-score: -0.6; nuclei per well, duplicate mean: 4925
TTL (tubulin tyrosine ligase) | migration robust z-score: -0.18; nuclei per well, duplicate mean: 6354
IFNE (interferon epsilon) | migration robust z-score: -2.54 (active); nuclei per well, duplicate mean: 4146
ANKDD1A (ankyrin repeat and death domain containing 1A) | migration robust z-score: 0.63; nuclei per well, duplicate mean: 5288
CHCHD4 (coiled-coil-helix-coiled-coil-helix domain containing 4) | migration robust z-score: 1.12; nuclei per well, duplicate mean: 5730
CCT3 (chaperonin containing TCP1 subunit 3) | migration robust z-score: 0.15; nuclei per well, duplicate mean: 7000
RIPOR3 (RIPOR family member 3) | migration robust z-score: -0.24; nuclei per well, duplicate mean: 6312
DLD (dihydrolipoamide dehydrogenase) | migration robust z-score: 0.34; nuclei per well, duplicate mean: 6158
THUMPD3 (THUMP domain 3 tRNA guanosine methyltransferase) | migration robust z-score: 1.34; nuclei per well, duplicate mean: 5904

Records listed so far whose target name begins with C or c:
CHCHD4 (coiled-coil-helix-coiled-coil-helix domain containing 4) | migration robust z-score: 1.12; nuclei per well, duplicate mean: 5730
CCT3 (chaperonin containing TCP1 subunit 3) | migration robust z-score: 0.15; nuclei per well, duplicate mean: 7000
